Experimental data: the supplement of paper PMC10849652
This is one part of the list.

Sequences of proteins named here, by UniProt entry; tags and fusion partners are left off. A change or cut given only in a name is not applied to a line headed by its entry.
UniProt Q9NRN9: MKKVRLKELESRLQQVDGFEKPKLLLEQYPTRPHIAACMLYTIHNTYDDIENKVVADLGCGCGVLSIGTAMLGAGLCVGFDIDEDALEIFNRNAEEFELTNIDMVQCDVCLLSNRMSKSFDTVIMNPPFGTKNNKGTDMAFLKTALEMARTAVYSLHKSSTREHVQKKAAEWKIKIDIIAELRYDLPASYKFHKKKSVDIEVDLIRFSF
UniProt Q9H8H3: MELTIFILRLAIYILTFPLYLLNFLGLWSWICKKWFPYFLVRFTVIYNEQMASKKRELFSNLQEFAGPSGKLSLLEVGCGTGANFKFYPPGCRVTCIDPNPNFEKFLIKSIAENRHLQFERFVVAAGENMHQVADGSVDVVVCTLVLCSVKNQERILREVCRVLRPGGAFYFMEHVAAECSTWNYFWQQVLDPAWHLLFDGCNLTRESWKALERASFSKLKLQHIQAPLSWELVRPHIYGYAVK
UniProt O95983: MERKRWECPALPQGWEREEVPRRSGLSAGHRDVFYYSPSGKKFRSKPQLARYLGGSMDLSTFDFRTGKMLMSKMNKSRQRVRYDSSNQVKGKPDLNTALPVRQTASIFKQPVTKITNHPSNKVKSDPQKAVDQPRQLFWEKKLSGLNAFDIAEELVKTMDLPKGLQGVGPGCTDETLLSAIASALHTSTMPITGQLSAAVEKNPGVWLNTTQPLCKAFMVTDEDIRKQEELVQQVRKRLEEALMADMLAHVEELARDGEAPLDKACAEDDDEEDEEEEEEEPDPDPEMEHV
UniProt P26572: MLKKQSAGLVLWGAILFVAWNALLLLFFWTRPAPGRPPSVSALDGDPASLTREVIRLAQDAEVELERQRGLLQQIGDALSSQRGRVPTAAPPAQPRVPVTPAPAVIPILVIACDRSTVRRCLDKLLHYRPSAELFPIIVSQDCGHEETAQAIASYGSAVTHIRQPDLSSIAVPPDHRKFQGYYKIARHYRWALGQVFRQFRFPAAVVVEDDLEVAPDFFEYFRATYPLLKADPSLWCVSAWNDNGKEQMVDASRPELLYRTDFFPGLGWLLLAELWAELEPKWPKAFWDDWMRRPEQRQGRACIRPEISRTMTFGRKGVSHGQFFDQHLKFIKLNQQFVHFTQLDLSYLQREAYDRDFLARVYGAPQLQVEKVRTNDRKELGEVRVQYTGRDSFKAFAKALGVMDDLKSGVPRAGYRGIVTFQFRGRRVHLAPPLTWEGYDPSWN
UniProt Q96GW9: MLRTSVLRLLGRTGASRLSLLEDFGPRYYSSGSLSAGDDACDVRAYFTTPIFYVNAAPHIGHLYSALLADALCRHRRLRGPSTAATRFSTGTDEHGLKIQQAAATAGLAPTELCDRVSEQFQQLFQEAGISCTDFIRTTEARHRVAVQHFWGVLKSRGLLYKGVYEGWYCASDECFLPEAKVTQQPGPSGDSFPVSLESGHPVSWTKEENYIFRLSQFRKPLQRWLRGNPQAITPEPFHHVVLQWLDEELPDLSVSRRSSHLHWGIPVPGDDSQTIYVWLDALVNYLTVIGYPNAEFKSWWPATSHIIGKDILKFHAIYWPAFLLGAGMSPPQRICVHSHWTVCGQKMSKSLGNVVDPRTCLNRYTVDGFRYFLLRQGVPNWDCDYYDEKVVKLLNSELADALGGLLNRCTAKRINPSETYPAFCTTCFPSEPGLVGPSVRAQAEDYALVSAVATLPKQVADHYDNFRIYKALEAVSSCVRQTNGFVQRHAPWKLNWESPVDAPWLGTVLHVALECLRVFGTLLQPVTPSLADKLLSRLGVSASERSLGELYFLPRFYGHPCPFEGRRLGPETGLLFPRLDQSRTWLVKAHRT
UniProt O60244: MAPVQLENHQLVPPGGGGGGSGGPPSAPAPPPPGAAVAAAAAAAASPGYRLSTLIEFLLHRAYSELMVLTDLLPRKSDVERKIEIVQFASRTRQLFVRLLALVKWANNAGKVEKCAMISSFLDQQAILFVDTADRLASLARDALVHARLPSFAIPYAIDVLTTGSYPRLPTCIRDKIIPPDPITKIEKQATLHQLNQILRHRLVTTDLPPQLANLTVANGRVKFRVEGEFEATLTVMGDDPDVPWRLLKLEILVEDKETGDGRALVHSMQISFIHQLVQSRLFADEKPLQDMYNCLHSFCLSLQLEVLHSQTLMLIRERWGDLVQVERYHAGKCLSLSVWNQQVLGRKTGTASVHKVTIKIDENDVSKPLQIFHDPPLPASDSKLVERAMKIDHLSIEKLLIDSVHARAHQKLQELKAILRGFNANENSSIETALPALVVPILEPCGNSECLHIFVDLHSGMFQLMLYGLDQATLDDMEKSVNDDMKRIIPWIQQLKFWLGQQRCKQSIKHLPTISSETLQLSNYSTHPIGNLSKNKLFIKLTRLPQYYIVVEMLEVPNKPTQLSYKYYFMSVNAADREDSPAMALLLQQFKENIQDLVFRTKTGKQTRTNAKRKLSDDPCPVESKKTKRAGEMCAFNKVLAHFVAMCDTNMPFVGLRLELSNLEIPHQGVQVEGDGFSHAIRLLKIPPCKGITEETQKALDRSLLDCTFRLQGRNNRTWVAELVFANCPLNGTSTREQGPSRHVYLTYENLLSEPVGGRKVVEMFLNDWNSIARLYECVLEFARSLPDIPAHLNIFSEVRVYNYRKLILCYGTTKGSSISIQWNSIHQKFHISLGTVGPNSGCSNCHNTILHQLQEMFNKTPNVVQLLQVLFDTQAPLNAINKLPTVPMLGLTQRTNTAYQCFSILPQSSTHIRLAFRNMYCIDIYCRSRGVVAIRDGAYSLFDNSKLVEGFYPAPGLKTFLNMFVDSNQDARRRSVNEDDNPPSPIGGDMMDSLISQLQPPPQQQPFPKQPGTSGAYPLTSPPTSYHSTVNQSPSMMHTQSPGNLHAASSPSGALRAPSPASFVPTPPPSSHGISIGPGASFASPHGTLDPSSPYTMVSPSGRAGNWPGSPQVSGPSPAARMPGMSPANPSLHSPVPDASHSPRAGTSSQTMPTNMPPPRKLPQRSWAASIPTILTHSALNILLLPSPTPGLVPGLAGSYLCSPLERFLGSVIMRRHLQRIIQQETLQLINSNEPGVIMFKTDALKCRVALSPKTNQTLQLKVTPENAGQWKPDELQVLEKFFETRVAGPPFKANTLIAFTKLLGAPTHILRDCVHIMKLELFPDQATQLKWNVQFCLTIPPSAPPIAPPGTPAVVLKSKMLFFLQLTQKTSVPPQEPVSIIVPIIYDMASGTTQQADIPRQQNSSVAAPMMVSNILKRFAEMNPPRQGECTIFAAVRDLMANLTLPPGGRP
UniProt Q96RN5: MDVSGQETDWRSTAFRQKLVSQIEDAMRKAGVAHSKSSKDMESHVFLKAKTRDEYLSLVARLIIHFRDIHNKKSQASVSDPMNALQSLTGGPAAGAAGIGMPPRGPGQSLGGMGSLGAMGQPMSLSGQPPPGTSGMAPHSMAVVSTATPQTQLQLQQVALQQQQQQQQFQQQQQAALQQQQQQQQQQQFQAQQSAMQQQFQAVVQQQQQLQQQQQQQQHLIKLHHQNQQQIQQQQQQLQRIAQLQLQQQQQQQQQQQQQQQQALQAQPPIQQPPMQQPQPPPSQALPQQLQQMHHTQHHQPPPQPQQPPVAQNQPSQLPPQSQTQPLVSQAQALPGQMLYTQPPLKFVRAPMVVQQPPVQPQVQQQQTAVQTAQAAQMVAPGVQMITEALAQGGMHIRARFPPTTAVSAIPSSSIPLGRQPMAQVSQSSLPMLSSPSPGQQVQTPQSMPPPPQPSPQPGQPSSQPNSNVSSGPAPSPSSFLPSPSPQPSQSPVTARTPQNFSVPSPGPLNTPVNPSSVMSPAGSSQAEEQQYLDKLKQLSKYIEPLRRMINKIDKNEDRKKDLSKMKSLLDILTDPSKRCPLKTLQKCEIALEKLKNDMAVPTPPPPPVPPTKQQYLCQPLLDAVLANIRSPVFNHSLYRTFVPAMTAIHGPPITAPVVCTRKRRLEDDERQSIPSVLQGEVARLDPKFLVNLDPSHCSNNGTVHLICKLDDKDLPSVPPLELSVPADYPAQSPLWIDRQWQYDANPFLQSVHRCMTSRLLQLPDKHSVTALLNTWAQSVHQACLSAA
UniProt Q9NWR8: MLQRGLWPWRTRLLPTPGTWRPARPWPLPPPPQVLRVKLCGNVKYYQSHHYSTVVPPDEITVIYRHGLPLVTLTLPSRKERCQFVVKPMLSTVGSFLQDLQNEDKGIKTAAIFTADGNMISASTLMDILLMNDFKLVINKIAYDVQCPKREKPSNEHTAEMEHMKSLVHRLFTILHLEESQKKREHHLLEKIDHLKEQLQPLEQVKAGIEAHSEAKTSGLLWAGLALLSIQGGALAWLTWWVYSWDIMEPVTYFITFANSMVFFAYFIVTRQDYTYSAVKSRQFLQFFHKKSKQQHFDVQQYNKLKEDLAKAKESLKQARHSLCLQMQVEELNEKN
UniProt Q6ZNC8: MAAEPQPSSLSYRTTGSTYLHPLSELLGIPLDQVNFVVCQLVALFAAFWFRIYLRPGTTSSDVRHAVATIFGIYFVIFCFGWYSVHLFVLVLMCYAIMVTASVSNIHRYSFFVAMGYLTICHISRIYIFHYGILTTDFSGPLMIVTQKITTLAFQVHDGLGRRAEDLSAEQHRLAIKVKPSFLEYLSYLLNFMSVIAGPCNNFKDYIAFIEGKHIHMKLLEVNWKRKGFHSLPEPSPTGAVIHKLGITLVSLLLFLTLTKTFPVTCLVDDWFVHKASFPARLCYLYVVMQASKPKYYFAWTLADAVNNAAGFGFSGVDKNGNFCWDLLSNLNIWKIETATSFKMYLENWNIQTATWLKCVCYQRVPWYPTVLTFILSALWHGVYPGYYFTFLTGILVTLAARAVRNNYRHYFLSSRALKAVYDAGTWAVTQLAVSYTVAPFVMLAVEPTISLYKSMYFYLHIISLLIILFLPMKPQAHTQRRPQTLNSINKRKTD
UniProt Q9H204: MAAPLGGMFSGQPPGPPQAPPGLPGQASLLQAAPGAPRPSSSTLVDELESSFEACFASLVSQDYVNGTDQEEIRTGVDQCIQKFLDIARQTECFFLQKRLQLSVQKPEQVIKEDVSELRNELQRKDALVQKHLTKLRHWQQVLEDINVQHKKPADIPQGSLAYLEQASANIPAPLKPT
UniProt Q09328: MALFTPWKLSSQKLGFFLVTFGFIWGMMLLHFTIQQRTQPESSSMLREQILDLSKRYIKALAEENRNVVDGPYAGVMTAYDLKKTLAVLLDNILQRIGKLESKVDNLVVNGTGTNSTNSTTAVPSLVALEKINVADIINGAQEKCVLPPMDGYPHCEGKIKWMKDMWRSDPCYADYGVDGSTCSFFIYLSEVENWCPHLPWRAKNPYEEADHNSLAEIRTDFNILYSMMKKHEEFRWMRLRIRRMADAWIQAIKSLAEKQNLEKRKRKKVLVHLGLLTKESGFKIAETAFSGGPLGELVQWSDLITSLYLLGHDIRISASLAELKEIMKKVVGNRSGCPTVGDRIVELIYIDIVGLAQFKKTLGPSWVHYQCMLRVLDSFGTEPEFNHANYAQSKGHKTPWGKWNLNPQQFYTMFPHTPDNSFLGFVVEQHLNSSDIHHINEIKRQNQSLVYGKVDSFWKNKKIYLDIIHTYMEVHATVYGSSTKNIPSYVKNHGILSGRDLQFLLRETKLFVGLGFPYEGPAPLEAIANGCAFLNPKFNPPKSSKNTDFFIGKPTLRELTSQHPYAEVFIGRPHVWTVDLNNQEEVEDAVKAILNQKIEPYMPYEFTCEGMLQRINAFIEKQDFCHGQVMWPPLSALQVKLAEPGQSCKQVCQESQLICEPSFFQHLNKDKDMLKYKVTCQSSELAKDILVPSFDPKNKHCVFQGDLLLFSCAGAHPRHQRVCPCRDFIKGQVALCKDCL
UniProt Q9UBB5, whole entry, looked up: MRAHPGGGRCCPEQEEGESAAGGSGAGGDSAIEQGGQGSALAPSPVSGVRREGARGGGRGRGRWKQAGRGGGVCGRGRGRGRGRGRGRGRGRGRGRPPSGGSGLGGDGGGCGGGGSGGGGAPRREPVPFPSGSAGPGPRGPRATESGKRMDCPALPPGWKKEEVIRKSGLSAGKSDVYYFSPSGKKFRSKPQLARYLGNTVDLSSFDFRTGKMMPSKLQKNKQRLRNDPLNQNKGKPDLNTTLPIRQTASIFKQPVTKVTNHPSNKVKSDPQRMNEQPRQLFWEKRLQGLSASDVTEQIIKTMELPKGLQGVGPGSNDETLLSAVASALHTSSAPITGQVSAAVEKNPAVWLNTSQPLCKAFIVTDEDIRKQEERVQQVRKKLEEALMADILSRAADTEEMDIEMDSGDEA

Key:
Experiment in all cases: log2 fold change, soluble protein after heating vs DMSO (PISA); higher = thermal stabilisation; K562 cells, 10 uM, 30 min; active = over 0.2 and 3.5 SD of the protein, either way, in both replicates (recomputed)
[1] = compound: CN1CCN(CCOc2cc(OC3CCOCC3)c3c(Nc4c(Cl)ccc5c4OCO5)ncnc3c2)CC1 [saracatinib]
Method in brief: (§1)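 K562 cells at 2×10^6 cells/mL were given 10 μM compound for 30 min. Aliquots then went through 3 min of heating across 48°C-58°C, were pooled, and were extracted in PBS with 0.5% NP-40 at 4°C, and the supernatant after 21,000xg for 90 min was quantified by TMTpro 16plex LC-MS/MS with channel sums equalised. Thermal stability relative to control samples, from duplicates, is given as log2 fold change.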

[2] = compound: CN1CCN(c2nc(C3=C(c4c[nH]c5ccccc45)C(=O)NC3=O)c3ccccc3n2)CC1 [sotrastaurin]
Method in brief: as §1

[3] = compound: CN1CC[C@H](c2c(O)cc(O)c3c(=O)cc(-c4ccccc4Cl)oc23)[C@H](O)C1 [alvocidib]
Method in brief: as §1

[4] = compound: CN1CCc2c(c3ccccc3n2Cc2ccc(C(=O)NO)cc2)C1 [Tubastatin A]
Method in brief: as §1

[5] = compound: CNC(=O)C1=CC=CC=C1NC2=NC(=NC=C2Cl)NC3=C(C=C(C=C3)N4CCOCC4)OC
Method in brief: as §1

[6] = compound: CNC(=O)c1ccc(Nc2ncc(C(F)(F)F)c(NCc3nccnc3N(C)S(C)(=O)=O)n2)cc1 [defactinib]
Method in brief: as §1

[7] = compound: CNCc1ccc(-c2[nH]c3cc(F)cc4c3c2CCNC4=O)cc1 [rucaparib]
Method in brief: as §1

[8] = compound: CNc1nc(-c2ccc3c(N)n[nH]c3c2)cc(N2C[C@@H](C(=O)NC3CCCCC3)CC[C@H]2C)n1
Method in brief: as §1

[9] = compound: COC(=O)N[C@@H](C)CNc1nccc(-c2cn(C(C)C)nc2-c2cc(Cl)cc(NS(C)(=O)=O)c2F)n1 [encorafenib]
Method in brief: as §1

[10] = compound: COC(=O)[C@H](CCSC)NC(=O)C1=C(C=C(C=C1)NC[C@H](CS)N)C2=CC=CC=C2
Method in brief: as §1

[11] = compound: COC1=CC=C(C=C1)CN2C=CC3=C2C=C(C=C3)C(=O)NO
Method in brief: as §1

[12] = compound: CON(C)C(=O)N1N=C(c2cc(F)ccc2F)S[C@@]1(CCCN)c1ccccc1 [filanesib]
Method in brief: as §1

[13] = compound: CO[C@H]1C[C@@H]2CC[C@@H](C)[C@@](O)(O2)C(=O)C(=O)N2CCCC[C@H]2C(=O)O[C@H]([C@H](C)C[C@@H]2CC[C@H](n3cnnn3)[C@H](OC)C2)CC(=O)[C@H](C)/C=C(\C)[C@@H](O)[C@@H](OC)C(=O)[C@H](C)C[C@H](C)/C=C/C=C/C=C/1C [zotarolimus]
Method in brief: as §1

[14] = compound: COc1cc(C(=O)O)ccc1NC(=O)[C@@H]1N[C@@H](CC(C)(C)C)[C@](C#N)(c2ccc(Cl)cc2F)[C@H]1c1cccc(Cl)c1F [idasanutlin]
Method in brief: as §1

[15] = compound: COc1cc(Nc2ncc3c(n2)-c2ccc(Cl)cc2C(c2c(F)cccc2OC)=NC3)ccc1C(=O)O [alisertib]
Method in brief: as §1

[16] = compound: COc1cc2nc(-c3cc(F)ccc3O)nc(N[C@@H]3CNC[C@H]3C(C)(C)O)c2cc1OC
Method in brief: as §1

[17] = compound: COc1cc2ncnc(Nc3ccc(F)c(Cl)c3)c2cc1OCCCN1CCOCC1 [gefitinib]
Method in brief: as §1

[18] = compound: COc1cccc2cc(-c3nc([C@H]4CC[C@H](C(=O)O)CC4)n4ncnc(N)c34)[nH]c12
Method in brief: as §1

[19] = compound: CS(=O)(=O)CCNCc1ccc(-c2ccc3ncnc(Nc4ccc(OCc5cccc(F)c5)c(Cl)c4)c3c2)o1 [lapatinib]
Method in brief: as §1

[20] = compound: CS(=O)(=O)N1CCN(Cc2cc3nc(-c4cccc5[nH]ncc45)nc(N4CCOCC4)c3s2)CC1 [pictilisib]
Method in brief: as §1

Measured: log2 fold change

METTL5 (UniProt Q9NRN9)
inactive: [1] 0.086 | [2] 0.045 | [3] -0.007 | [4] -0.013 | [5] -0.041 | [6] -0.034 | [7] -0.028 | [8] -0.006 | [9] -0.026 | [10] 0.005 | [11] -0.033 | [12] -0.025 | [13] -0.043 | [14] -0.041 | [15] -0.073 | [16] 0.023 | [17] 0.003 | [18] 0.075 | [19] 0.044 | [20] 0.035

METTL7A (UniProt Q9H8H3)
inactive: [1] -0.018 | [2] 0.054 | [3] -0.055 | [4] -0.055 | [5] 0.073 | [6] -0.013 | [7] 0.016 | [8] -0.023 | [9] -0.022 | [10] 0.01 | [11] -0.059 | [12] -0.035 | [13] 0.05 | [14] -0.011 | [15] 0.001 | [16] -0.061 | [17] -0.023 | [18] 0.027 | [19] -0.062 | [20] 0.014

MCM7 (UniProt P33993)
inactive: [1] 0.033 | [2] -0.003 | [3] -0.152 | [4] -0.016 | [5] -0.022 | [6] -0.1 | [7] -0.029 | [8] 0 | [9] -0.007 | [10] -0.005 | [11] 0.059 | [12] -0.049 | [13] 0.023 | [14] -0.03 | [15] -0.056 | [16] -0.02 | [17] 0.007 | [18] 0.015 | [19] 0.005 | [20] -0.003

MBD3 (UniProt O95983)
inactive: [1] 0.027 | [2] -0.087 | [3] -0.034 | [4] -0.05 | [5] 0.027 | [6] -0.062 | [7] 0.047 | [8] -0.051 | [9] 0.017 | [10] 0.036 | [11] -0.071 | [12] 0.023 | [13] 0.011 | [14] 0.03 | [15] -0.111 | [16] -0.084 | [17] -0.003 | [18] -0.008 | [19] 0.038 | [20] -0.005

MGAT1 (UniProt P26572)
inactive: [1] 0.033 | [2] 0.087 | [3] -0.006 | [4] 0.011 | [5] 0.083 | [6] -0.018 | [7] 0.159 | [8] -0.023 | [9] -0.144 | [10] -0.012 | [11] 0.034 | [12] 0.007 | [13] -0.034 | [14] -0.002 | [15] -0.058 | [16] 0.037 | [17] 0.029 | [18] 0.015 | [19] 0.009 | [20] 0.004

MARS2 (UniProt Q96GW9)
inactive: [1] 0.045 | [2] 0.087 | [3] -0.046 | [4] -0.055 | [5] -0.028 | [6] -0.009 | [7] 0.02 | [8] -0.027 | [9] -0.055 | [10] -0.022 | [11] -0.017 | [12] -0.027 | [13] -0.023 | [14] -0.008 | [15] -0.1 | [16] 0.002 | [17] 0.01 | [18] 0.043 | [19] 0.01 | [20] -0.072

Pulled one by one from the entries so far (two):
METTL7A (UniProt Q9H8H3)
inactive: [1] -0.018 | [2] 0.054 | [3] -0.055 | [4] -0.055 | [5] 0.073 | [6] -0.013 | [7] 0.016 | [8] -0.023 | [9] -0.022 | [10] 0.01 | [11] -0.059 | [12] -0.035 | [13] 0.05 | [14] -0.011 | [15] 0.001 | [16] -0.061 | [17] -0.023 | [18] 0.027 | [19] -0.062 | [20] 0.014

MBD3 (UniProt O95983)
inactive: [1] 0.027 | [2] -0.087 | [3] -0.034 | [4] -0.05 | [5] 0.027 | [6] -0.062 | [7] 0.047 | [8] -0.051 | [9] 0.017 | [10] 0.036 | [11] -0.071 | [12] 0.023 | [13] 0.011 | [14] 0.03 | [15] -0.111 | [16] -0.084 | [17] -0.003 | [18] -0.008 | [19] 0.038 | [20] -0.005

The list continues:

MED14 (UniProt O60244)
inactive: [1] -0.104 | [2] -0.143 | [3] -0.123 | [4] -0.066 | [5] 0.104 | [6] 0.06 | [7] 0.09 | [8] -0.015 | [9] 0.304 | [10] 0.071 | [11] 0.01 | [12] 0.05 | [13] 0.063 | [14] 0.097 | [15] -0.017 | [16] -0.066 | [17] 0.091 | [18] -0.06 | [19] 0.03 | [20] 0.036

MED15 (UniProt Q96RN5)
inactive: [1] -0.025 | [2] -0.054 | [3] -0.21 | [4] 0.102 | [5] 0.035 | [6] -0.021 | [7] 0.027 | [8] 0.014 | [9] -0.016 | [10] 0.05 | [11] -0.02 | [12] 0.036 | [13] -0.017 | [14] 0.02 | [15] 0.039 | [16] -0.005 | [17] -0.02 | [18] -0.064 | [19] 0.005 | [20] -0.053

MCUB (UniProt Q9NWR8)
inactive: [1] 0.009 | [2] 0.014 | [3] -0.014 | [4] 0.022 | [5] -0.024 | [6] -0.02 | [7] 0.005 | [8] -0.015 | [9] 0.058 | [10] -0.018 | [11] -0.055 | [12] -0.105 | [13] 0.161 | [14] 0.019 | [15] 0.086 | [16] 0.01 | [17] 0.203 | [18] -0.133 | [19] -0.008 | [20] 0.062

MAZ isoform 2 (UniProt P56270)
inactive: [1] -0.118 | [2] -0.124 | [3] 0.28 | [4] -0.123 | [5] 0.017 | [6] 0.192 | [7] 0.28 | [8] 0.086 | [9] 0.073 | [10] -0.006 | [11] 0 | [12] 0.189 | [13] -0.038 | [14] 0.11 | [15] -0.201 | [16] -0.049 | [17] -0.042 | [18] -0.275 | [19] 0.048 | [20] 0.002

MBOAT1 (UniProt Q6ZNC8)
inactive: [1] 0.076 | [2] 0.113 | [3] 0.019 | [4] -0.092 | [5] 0.022 | [6] -0.085 | [7] 0.026 | [8] 0.006 | [9] 0.068 | [10] -0.019 | [11] -0.121 | [12] -0.245 | [13] 0.015 | [14] -0.149 | [16] 0.033 | [17] 0.011 | [19] -0.008

MCM3 isoform 2 (UniProt P25205)
inactive: [1] 0.022 | [2] -0.036 | [3] -0.068 | [4] -0.025 | [5] 0.009 | [6] -0.062 | [7] -0.023 | [8] -0.011 | [9] -0.006 | [10] -0.016 | [11] 0.002 | [12] -0.049 | [13] 0.023 | [14] -0.005 | [15] -0.078 | [16] -0.013 | [17] 0.011 | [18] -0.011 | [19] 0.003 | [20] 0.011

MED28 (UniProt Q9H204)
inactive: [1] -0.066 | [2] 0.005 | [3] -0.111 | [4] 0.005 | [5] -0.045 | [7] 0.041 | [8] 0.022 | [9] -0.067 | [12] 0.074 | [13] 0.043 | [14] 0.06 | [15] -0.074 | [16] -0.076 | [17] -0.033 | [18] -0.012 | [19] 0.082 | [20] 0.058

MCM5 (UniProt P33992)
inactive: [1] 0.044 | [2] -0.016 | [3] -0.057 | [4] -0.032 | [5] -0.019 | [6] -0.062 | [7] -0.084 | [8] -0.008 | [9] 0.019 | [10] -0.012 | [11] 0.039 | [12] -0.054 | [13] 0.016 | [14] -0.055 | [15] -0.053 | [16] -0.026 | [17] -0.004 | [18] 0.008 | [19] 0.042 | [20] -0.005

MGAT5 (UniProt Q09328)
inactive: [1] 0.123 | [2] 0.053 | [3] 0.011 | [4] -0.035 | [5] 0.029 | [6] -0.038 | [7] -0.015 | [8] -0.054 | [9] -0.056 | [10] 0.14 | [11] 0 | [12] 0.116 | [13] -0.012 | [14] -0.075 | [15] -0.021 | [16] 0.001 | [17] 0.128 | [18] -0.009 | [19] -0.014 | [20] 0.038

MBD2 (UniProt Q9UBB5)
inactive: [1] -0.071 | [2] -0.085 | [3] 0.028 | [4] -0.041 | [5] -0.323 | [6] -0.143 | [8] -0.006 | [10] 0.03 | [12] 0.256 | [13] 0.056 | [14] 0.039 | [15] -0.042 | [16] -0.16 | [17] -0.019 | [18] -0.074 | [19] 0.118 | [20] 0.145
